Source: PubChem BioAssay AID1671190 (National Center for Advancing Translational Sciences (NCATS), 2021)
Values joined by “and” are separate entries in the source; they are usually repeats but may differ in a detail not shown here. Equal values may be shown once. Among all 580,000 compounds or so, about 6,100 (1.1%) were called active. This list was built around the results that the source calls inconclusive (neither active nor inactive); the mix of calls is not that of the screen. Calls come from the whole dose curve; as a rule, active = well fitted inhibition curve with a large enough effect; inconclusive = small, poorly fitted or top-dose-only effect, or another doubt; inactive = no such curve, though single readings can be large or run the other way. Potencies beside an inconclusive call are fits to weak or partial responses and may not hold up.

The chains behind the UniProt entries cited, without tags or fusion partners. Where a name states a change or a piece, a line headed by the entry shows the natural chain unless it says otherwise.
UniProt P18054: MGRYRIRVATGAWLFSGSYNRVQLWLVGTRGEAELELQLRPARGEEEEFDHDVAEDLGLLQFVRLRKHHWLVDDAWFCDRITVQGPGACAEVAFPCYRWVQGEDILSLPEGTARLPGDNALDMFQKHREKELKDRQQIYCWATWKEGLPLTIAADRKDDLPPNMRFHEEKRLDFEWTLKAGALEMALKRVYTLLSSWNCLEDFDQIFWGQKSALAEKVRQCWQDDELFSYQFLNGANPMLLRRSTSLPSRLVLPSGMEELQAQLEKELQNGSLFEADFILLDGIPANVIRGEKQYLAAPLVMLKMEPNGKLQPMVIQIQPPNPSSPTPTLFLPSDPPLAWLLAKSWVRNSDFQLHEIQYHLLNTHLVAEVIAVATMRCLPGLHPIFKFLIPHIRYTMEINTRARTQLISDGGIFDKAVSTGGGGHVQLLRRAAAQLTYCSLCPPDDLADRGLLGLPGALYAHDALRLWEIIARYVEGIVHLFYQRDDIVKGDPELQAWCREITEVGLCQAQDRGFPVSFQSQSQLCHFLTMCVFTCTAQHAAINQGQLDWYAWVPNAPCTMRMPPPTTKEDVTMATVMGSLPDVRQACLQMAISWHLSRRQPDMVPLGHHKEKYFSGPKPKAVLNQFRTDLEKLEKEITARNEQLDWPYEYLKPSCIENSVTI

biological target: Polyunsaturated fatty acid lipoxygenase ALOX12 (Homo sapiens) (UniProt P18054); test: Primary qHTS assay for inhibitors of human arachidonate 12S-lipoxygenase (ALOX12): Round 2; details: purified 12hLO, xylenol orange hydroperoxide absorbance; activity change, negative = inhibition: at 108 µM (top of the series) unless noted
Method in brief: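 Purified human 12hLO at 150 nM in 25 mM Hepes, 0.01% Triton X-100, pH 7.0, preincubated 15 min at room temperature with compound. Reaction started with 40 uM arachidonic acid, 30 min at room temperature. Hydroperoxide measured by Fe-xylenol orange, 573/405 nm absorbance ratio.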
% is set by controls: 0 for no effect and ±100 for the full control effect; potency is the fitted concentration of half-maximal effect.

| SMILES | Potency | activity change, negative = inhibition |
| --- | --- | --- |
| NCCCC[C@H]1CNC(=O)C(=O)N1CCc1cccc(F)c1 | inconclusive: 112 µM [inhibitor, single point] |  |
| COC(=O)CC1C(=O)NCCN1S(=O)(=O)c1ccc(Br)cc1 (stereo unspecified) |  | inactive: 1.23% |
| CC(=O)Nc1cccc(C(=O)Nc2ccccc2N2CCOCC2)c1 |  | inactive: -17.6% |
| Cn1c(CNC(=O)c2ccccc2Br)nnc1SCC(=O)N1CCOCC1 |  | inactive: 6.86% |
| O=C(CC1C(=O)NCCN1Cc1ccccc1C(F)(F)F)NCCN1CCCCC1=O (stereo unspecified) |  | inactive: 4.57% |
| CCOc1ccc(C2/C(=C(/O)c3ccc(OC)cc3)C(=O)C(=O)N2c2cc(C)on2)cc1OC (stereo unspecified) | inconclusive: 7.94 µM [inhibitor, full curve, poor fit] |  |
| CCCC(=O)N(c1ccc2oc(=O)sc2c1)S(=O)(=O)c1cccs1 | inconclusive: 20 µM [inhibitor, partial curve, poor fit] |  |
| O=C(OCc1ccc(Br)cc1)c1cccc(O)c1 | inconclusive: 100 µM [inhibitor, single point] |  |
| Cc1cc(C)c(NC(=O)Cn2c(=O)n(CCC(=O)NCc3ccccc3Cl)c(=O)c3sccc32)c(C)c1 | inconclusive: 100 µM [inhibitor, partial curve, poor fit] |  |
| Cc1ccc(/C=C/C(=O)c2c(C)nc3ccc(Br)cc3c2-c2ccccc2)o1 | inconclusive: 11.2 µM [inhibitor, full curve, poor fit] |  |
| COc1ccc(NC(=O)c2sc(NC(=O)COc3ccccc3)nc2C)cc1 | inconclusive: 39.8 µM [inhibitor, partial curve, poor fit] |  |
| CC(=O)Nc1cccc(NC(=O)Cc2cccs2)c1 | inconclusive: 0.708 µM [inhibitor, full curve, poor fit] |  |
| Cc1nc(NCc2ccc(C(=O)N3CCCCC3)cc2)cc(C2CC(N)C2)n1 (stereo unspecified) | inconclusive: 28.2 µM [inhibitor, full curve, poor fit] |  |
| CC1CC(C)CN(CC(=O)N2c3ccccc3CCc3ccccc32)C1 (stereo unspecified) | inconclusive: 31.6 µM [inhibitor, partial curve, poor fit] |  |
| O=C(Nc1ccc(Cl)c(Cl)c1)Nc1ccccc1NS(=O)(=O)c1cccs1 | inconclusive: 100 µM [inhibitor, single point] |  |
| O=C(CSc1cn(CCNC(=O)c2cccc(C(F)(F)F)c2)c2ccccc12)Nc1ccc2c(c1)OCCO2 |  | inactive: 0% |
| CC1CCc2c(sc3ncn4c(SCC(=O)NCc5ccco5)nnc4c23)C1 (stereo unspecified) |  | inactive: 1.34% |
| C=CCNC(=S)N/N=C(\C)c1cccc(OC)c1 | inconclusive: 31.6 µM [inhibitor, partial curve, poor fit] |  |
| Cc1cccc(C)c1NC(=O)CN(C)C(=O)COC(=O)c1cccnc1Nc1ccccc1F | inconclusive: 56.2 µM [inhibitor, partial curve, poor fit] |  |
| O=C1c2ccccc2C(Nc2ccc(F)c(Cl)c2)N1Cc1ccco1 (stereo unspecified) | inconclusive: 89.1 µM [inhibitor, partial curve, poor fit] |  |
| CC(C)CC(c1nc2ccccc2[nH]1)n1c(-c2ccccc2Br)nc2ccccc21 (stereo unspecified) | inconclusive: 5.62 µM [inhibitor, full curve, poor fit] |  |
| COc1ccc(NC(=O)CSc2nnc(-c3ccco3)n2C)cc1 |  | inactive: -21.4% |

| SMILES | Potency | activity change, negative = inhibition |
| --- | --- | --- |
| COC(=O)C1=C(C)N(C)C(=O)NC1c1cc2c(cc1Br)OCO2 (stereo unspecified) | inconclusive: 89.1 µM [inhibitor, partial curve, poor fit] |  |
| O=C1CC(c2ccc3c(c2)OCO3)c2c(c3ccccc3[nH]c2=O)O1 (stereo unspecified) | inconclusive: 56.2 µM [inhibitor, single point] |  |
| Cc1ccc(NC(=S)Nc2nc(CC(=O)Nc3ccccc3)cs2)cc1 | inconclusive: 100 µM [inhibitor, single point] |  |
| Cc1ccc(-n2c(C3CCN(C(=O)c4ccc5ccccc5n4)CC3)n[nH]c2=O)cc1 |  | inactive: -12.4% |
| O=C(COC(=O)c1c[nH]c2ccccc12)NC1CC1 |  | inactive: -24.8% |
| O=C(Cc1n[nH]c(=O)c2ccccc12)NCCOc1cccc(Cl)c1 | inconclusive: 0.891 µM [inhibitor, full curve, poor fit] |  |
| COc1ccc(OC)c(-n2c(CN3CCC(C(N)=O)CC3)nc3ccccc3c2=O)c1 |  | inactive: -16.7% |
| O=C(NC(=S)NCCC1=CCCCC1)c1ccc(Br)o1 | inconclusive: 5.01 µM [inhibitor, full curve, poor fit] |  |
| CCN(CC)c1nc(C#N)cc(-c2ccc(OC)cc2)n1 |  | inactive: -34.9% |
| COCCOC(=O)/C(C#N)=C\c1ccc(Cl)c(Cl)c1 |  | inactive: -5% |
| CN(C)c1ccc(N2CC(C)(C)C2=O)cc1 | inconclusive: 79.4 µM [inhibitor, partial curve, poor fit] |  |
| COC(=O)C1=C(C)N=C2SC=C(CC(=O)N3CCCC3)N2C1c1cc(OC)ccc1OC (stereo unspecified) | inconclusive: 8.91 µM [inhibitor, partial curve] |  |
| Cc1cccc2cc(CN(CC3CCCO3)C(c3nnnn3Cc3ccco3)C(C)C)c(=O)[nH]c12 (stereo unspecified) | inconclusive: 3.55 µM [inhibitor, full curve, poor fit] |  |
| CCn1c(=O)c(C(=O)NCc2ccccc2)c(O)c2ccccc21 |  | inactive: 24.3% |
| CCOC(=O)CN1C(c2ccc(O)cc2)Nc2ccc(Br)cc2C1c1ccccc1 (stereo unspecified) |  | inactive: -13.4% |
| CCN(CC(=O)Nc1ccc(OC(F)F)cc1)C1CCCCC1 |  | inactive: -23.8% |
| C[C@@]12C(=O)N(c3cccc(Cl)c3)C(=O)N1[C@H](c1ccc(Cl)cc1)[C@@H]1C(=O)N(C3CCCCC3)C(=O)[C@@H]12 |  | inactive: -9.21% |
| O=C1/C(=C\c2ccsc2)N2CCC1CC2 |  | inactive: 0% |
| COc1cccc(Cn2c(C)c(CNC3CCCCC3)c(C(=O)O)c2C)c1 | inconclusive: 79.4 µM [inhibitor, partial curve, poor fit] |  |
| O=C(NCc1cccs1)C1CCCN(S(=O)(=O)c2ccc3c(c2)OCO3)C1 (stereo unspecified) | inconclusive: 31.6 µM [inhibitor, partial curve, poor fit] |  |
| CCOc1ccc(/C(O)=C2\C(=O)C(=O)N(CCN(C)C)C2c2cc(OC)ccc2OC)cc1Cl (stereo unspecified) | inconclusive: 44.7 µM [inhibitor, partial curve, poor fit] |  |
| CCCNC(=O)C1(C)CCN(Cc2ccc3ccccc3c2Br)C1 (stereo unspecified) | inconclusive: 50.1 µM [inhibitor, partial curve, poor fit] |  |

5 compounds already listed, ordered by SMILES length, smallest number first.

| SMILES | Potency | activity change, negative = inhibition |
| --- | --- | --- |
| COCCOC(=O)/C(C#N)=C\c1ccc(Cl)c(Cl)c1 |  | inactive: -5% |
| O=C(Cc1n[nH]c(=O)c2ccccc12)NCCOc1cccc(Cl)c1 | inconclusive: 0.891 µM [inhibitor, full curve, poor fit] |  |
| COc1cccc(Cn2c(C)c(CNC3CCCCC3)c(C(=O)O)c2C)c1 | inconclusive: 79.4 µM [inhibitor, partial curve, poor fit] |  |
| CCOc1ccc(C2/C(=C(/O)c3ccc(OC)cc3)C(=O)C(=O)N2c2cc(C)on2)cc1OC (stereo unspecified) | inconclusive: 7.94 µM [inhibitor, full curve, poor fit] |  |
| C[C@@]12C(=O)N(c3cccc(Cl)c3)C(=O)N1[C@H](c1ccc(Cl)cc1)[C@@H]1C(=O)N(C3CCCCC3)C(=O)[C@@H]12 |  | inactive: -9.21% |

More results

| SMILES | Potency | activity change, negative = inhibition |
| --- | --- | --- |
| Cc1ccc2c(CSc3nnnn3C(C)(C)C)cc(=O)oc2c1 | inconclusive: 35.5 µM [inhibitor, partial curve] |  |
| O=C(NC(Cc1ccccc1)C(=O)O)/C(=C\c1ccc(Br)cc1)NC(=O)c1ccc(Br)o1 (stereo unspecified) | inconclusive: 100 µM [inhibitor, partial curve, poor fit] |  |
| COc1ccc(-c2cc(C(=O)N3CCC3)c3ccccc3n2)cc1OC |  | inactive: -3.04% |
| Cc1ccc(NC(=O)CNc2cccc(S(=O)(=O)N3CCOCC3)c2)cc1F | inconclusive: 126 µM [inhibitor, partial curve, poor fit] |  |
| CS(=O)(=O)N1CCCC1c1noc(CCC(=O)NC2CC2)n1 (stereo unspecified) |  | inactive: 14.5% |
| Cc1ccc(S(=O)(=O)NCCOC(=O)Nc2sc(=S)n(C)c2C)cc1 | inconclusive: 44.7 µM [inhibitor, partial curve, poor fit] |  |
| CCCSc1nc2c([nH]1)c(=O)n(C)c(=S)n2C | inconclusive: 44.7 µM [inhibitor, partial curve, poor fit] |  |
| CCC(c1nnnn1C(C)C)N1CCN(C2CCCC2)CC1 (stereo unspecified) | inconclusive: 5.62 µM [inhibitor, partial curve, poor fit] |  |
| CCOC(=O)C1(Cc2cccc(OC)c2)CCN(C2CCOCC2)CC1 | inconclusive: 126 µM [inhibitor, single point] |  |
| COc1ccc2c(C)c(CC(=O)NCCc3ccc(S(N)(=O)=O)cc3)c(=O)oc2c1C |  | inconclusive: -54.8% [inhibitor] |
| CC/C(=N\NC(=S)Nc1cccc(C)c1)c1ccccc1 | inconclusive: 44.7 µM [inhibitor, partial curve, poor fit] |  |
| CCN(C(=O)C(C)Sc1ccc(S(=O)(=O)N2CCOCC2)cn1)c1ccccc1 (stereo unspecified) | inconclusive: 100 µM [inhibitor, single point] |  |
| NCC1(Nc2ccccc2)CCCCC1 |  | inactive: 38.1% |
| COc1ccc(-c2n[nH]c(=S)n2-c2ccc(C)cc2)cc1OC | inconclusive: 50.1 µM [inhibitor, partial curve, poor fit] |  |
| CNC(=O)c1ccc(NS(=O)(=O)c2ccc(C(C)(C)C)cc2)cc1 |  | inactive: 4.98% |
| Cc1ccc(S(=O)(=O)NC(CC(=O)O)c2ccccc2)cc1 (stereo unspecified) | inconclusive: 10 µM [inhibitor, full curve, poor fit] |  |
| CCOc1ccc(OCC)c(S(=O)(=O)NNC(=O)c2c(C)nc3ccccn23)c1 | inconclusive: 22.4 µM [inhibitor, partial curve, poor fit] |  |
| COc1ccc(C)cc1CCNC(=O)c1ccc(NC(=O)CC2SC(N3CCCC3)=NC2=O)cc1 (stereo unspecified) | inconclusive: 126 µM [inhibitor, partial curve, poor fit] |  |
| COc1cc(NC(=O)c2ccc(N)nc2)cc(C(=O)Nc2cccc(C(F)(F)F)c2)c1 | inconclusive: 44.7 µM [inhibitor, partial curve, poor fit] and inconclusive: 17.8 µM [inhibitor, partial curve] |  |
| O=C(O)c1cnc(-c2ccccc2)nc1Oc1ccccc1 | inconclusive: 12.6 µM [inhibitor, full curve, poor fit] |  |
| CCc1nc(-c2ccc(-c3ccc(OC)cc3)nc2OC)no1 |  | inactive: -37.5% |
| CC(NC(=O)c1occc1-c1ccccc1)c1ccco1 (stereo unspecified) | inconclusive: 50.1 µM [inhibitor, partial curve, poor fit] |  |
